No constants are given. Whether binding was seen depends on the method and setting. Some entries that bind do so weakly or less than the wild type.

Chains of the proteins cited; added tags and fusions are not shown. Residues count along the entry.
UniProt O95760, residues 112-270: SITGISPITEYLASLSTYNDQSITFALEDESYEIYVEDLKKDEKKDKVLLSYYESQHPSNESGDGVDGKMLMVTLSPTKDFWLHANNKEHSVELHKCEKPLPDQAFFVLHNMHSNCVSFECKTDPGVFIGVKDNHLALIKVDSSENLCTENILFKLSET

The values below come from US20190092852A1.

For assay [1], the target named is biotinylated cyno IL-33 (cynomolgus monkey). Nature of the assay: competitive binding ELISA; biotin-cyIL-33 pre-mixed with antibody, binding to coated human ST2-Fc detected. On the technique in general: In an ELISA, binding on a coated surface is turned into a signal by an enzyme label.
The target of assay [2] is cyno IL-33 (construct not stated) (cynomolgus monkey). Description: ELISA, hybridoma supernatant on coated IL-33.
The target of assay [3] is human IL-33 (construct not stated) (human) (UniProt O95760). Description: ELISA, hybridoma supernatant on coated IL-33.

B1: 10C12.38.H6.87Y.58I IgG4 (antibody, V domains shown)
VH: EVQLVESGGGLVQPGGSLRLSCAASGFTFSSFSMSWVRQAPGKGLEWVATISGGKTFTDYVDSVKGRFTISRDDSKNTLYLQMNSLRAEDTAVYYCTRANYGNWFFEVWGQGTLVTVSS
VL: EIVLTQSPATLSLSPGERATLSCRASESVAKYGLSLLNWFQQKPGQPPRLLIFAASNRGSGIPARFSGSGSGTDFTLTISSLEPEDFAVYYCQQSKEVPFTFGQGTKVEIKR
For B1, the binding result in assay [1] is listed as “binds”.

B2: 9F6 (antibody, V domains shown)
VH: QVQLQQSGNDLVKPGASVKLSCKASGYTFTSYWINWIKQRPGQGLEWIGRIAPGSGFISYNELFKDKATLTVDTSSSTAYIQLGSLSSEDSAVYFCAREFYYGSFYGGFAYWGQGTLVTVSA
VL: DIQMNQSPSSLSASLGDTITITCHASQNIHVWLSWYQQKPGNIPKLLIYKASTLHTGVPSRFNGSGSGTGFTLTISSLQPEDIATYYCQQGQSSPLTFGAGTKLEVK
Turning to B2, the binding entry in assay [2] is “binds”.

B3: 10H2 (antibody, V domains shown)
VH: EVKLEESGGGLVQPGGSMKLSCVASGFTFSNYWMNWVRQSPEKGLEWMAEITLKFNNYSTHYAESVKGRFSISRDDSKSTVYLQMNNLRAEDTGIYYCARRNYGDWYINVWGAGTTVTVSS
VL: DIVLTQSPTSLAVSLGQRATISCRASESVDKFGMSFLNWFQQKPGQPPKLLIFVASSQGSGVPARFSGSGSGTDFSLNIHPVEEDDTAMYFCQQSKDIPYTFGGGTKLEIK
Consider B3, for which the binding entry in assay [2] is on record as “binds”.

B4: 10C12 (antibody, V domains shown)
VH: DVNLVESGGGSVKPGGSLKLSCVASGFTFSSFSMSWVRQTPEKRLEWVATISGGKTFTDYVDSVKGRFTISRDDAKNTLYLQMSSLESEDTAMYYCTRANYGNWFFEVWGAGTTVAVSS
VL: DIVLTQSPGFLVVSLGQRATISCRASESVAKYGLSLLNWFQQKPGQPPKLLIFAASNRGSGVPARFSGSGSGTDFSLNIHPMEEDDTAMYFCQQSKEVPFTFGSGTKLEIK
Turning to B4, the binding entry in assay [3] and in assay [2] was “binds” in each case.

B5: 2B6 (antibody, V domains shown)
VH: EVLLQQSGPELVKPGASVKISCNASGYTFSDYNMNWVKQSHGKSLESIGDINPKNGDTFYNQNFKDKATLTIDKSSSTVYMELRSLTSEDTAMYYCARHYYYGSSYGGFVYWGQGTLVTVAA
VL: DIQMNQSPSSLSASLGDTITITCHASQNINVWLSWYQQKAGNNPKLLIYAASKLHTGVPSRFTGSGSGTLFTLTISSLQPEDIATYYCQQGQSYPLTFGSGTNLELK
As for B5, in assay [2], the binding entry is on record as “binds”.
